According to PubChem BioAssay AID504467 (National Center for Advancing Translational Sciences (NCATS), 2011):
Hit rate of the full screen: of about 330,000 compounds, about 7,700 (2.3%) were called active. This list was built around the results that the source calls inconclusive (neither active nor inactive); the mix of calls is not that of the screen. Calls follow the shape of the dose curve; as a rule, active = well fitted inhibition curve with a large enough effect; inconclusive = small, poorly fitted or top-dose-only effect, or effect the other way; inactive = flat fitted curve, though single readings scatter. Potencies beside an inconclusive call are fits to weak or partial responses and may not hold up.

Test: qHTS screen for small molecules that inhibit ELG1-dependent DNA repair in human embryonic kidney (HEK293T) cells expressing luciferase-tagged ELG1; also: nearly all actives have a fitted effect of over 55% in size
Settings: HEK293T ELG1-luciferase reporter, luminescence, 16 h, DNA damage induced by 5-fluorouridine; activity change, negative = inhibition: at 46.1 µM (top of the series)
Procedure, shortened: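 Step one: seed 2,000 cells per well. Step two: pin-transfer compound or DMSO alongside 5-fluorouridine. Step three: incubate 16 hr, 37 °C, 5% CO2. Step four: add ONE-Glo, wait 30 min, read luminescence.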
% is scaled to controls: 0 for no effect and ±100 for the full control effect; potency is read from the fitted curve at half-maximal effect.

Question: Which Potency does the source give for `CCC1(CC)C(=O)NC(=Nc2cccc(C(F)(F)F)c2)NC1=O` here?
Answer: inconclusive: 29.1 µM [inhibitor, single point]

Question: For `Nc1ccccc1-[n+]1c(-c2ccccc2)cc(-c2ccccc2)cc1-c1ccccc1`, which “activity change, negative = inhibition” value is on record?
Answer: inactive: 0%

Question: Which Potency does the source give for `COP(=O)(OC)c1nc(-c2cccc3ccccc23)oc1NCCc1ccccc1` here?
Answer: inconclusive: 20.6 µM [inhibitor, partial curve]

Question: With `O=C1NC(=O)C(=Cc2ccc(Sc3ccccc3)o2)C(=O)N1` as the molecule, how does the Potency read?
Answer: inconclusive: 20.6 µM [activator, single point]

Question: For `Cn1cccc1/C=C1\C(=O)NC(=O)N(CCC2=CCCCC2)C1=O`, which “activity change, negative = inhibition” value is on record?
Answer: inactive: 21.3%

Question: For `O=c1[nH]c(=O)n(C2CCCCCC2)c(O)c1C=NCc1ccc(F)cc1`, which Potency is on record?
Answer: inconclusive: 23.1 µM [inhibitor, single point]

Question: For `Cc1nc2ccccc2c(=O)n1-c1cccc(O)c1`, which “activity change, negative = inhibition” value is on record?
Answer: inactive: 7.21%

Question: Which “activity change, negative = inhibition” value does the source give for `CC1CCCCN1Cc1ccc(Cl)nc1` (centres undefined) here?
Answer: inactive: 7.39%

Question: For `COc1ccc(OC)c(CNCCc2ccc(OC)c(OC)c2)c1`, which “activity change, negative = inhibition” value is on record?
Answer: inactive: -7.94%

Question: Which “activity change, negative = inhibition” value does the source give for `CCN1C(=O)/C(=C/c2ccc(N(CC)CC)cc2OC)C(=O)NC1=S` here?
Answer: inactive: 12.9%

Question: With `COc1ccc(C2=CC(c3ccc(OC)c(OC)c3)c3c(c4ccccc4oc3=O)O2)cc1OC` (centres undefined) as the molecule, how does the Potency read?
Answer: inconclusive: 9.2 µM [inhibitor, partial curve, poor fit]

Question: Which Potency does the source give for `COC(=O)C1=C(c2ccc(-c3ccccc3)c(F)c2)C[C@@H]2CC[C@H]1N2C(=O)NCCOc1ccccc1Cl` here?
Answer: inconclusive: 29.1 µM [inhibitor, single point]

Question: Which “activity change, negative = inhibition” value does the source give for `CCOc1ccc(N=Cc2c(O)n(CCc3ccc(OC)c(OC)c3)c(=O)[nH]c2=O)cc1` here?
Answer: inactive: -12.8%

Question: With `O=c1c2ccccc2nc(-c2ccoc2)n1-c1ccccc1` as the molecule, how does the “activity change, negative = inhibition” value read?
Answer: inactive: -2.23%

Question: With `OC[C@H]1O[C@@H](n2cnc3cc(Cl)c(Cl)cc32)[C@H](O)[C@@H]1O` as the molecule, how does the Potency read?
Answer: active: 8.91 µM

Question: With `CCCc1c(C)nc(SCC(=O)C(C)(C)C)nc1OC(=O)N(C)C` as the molecule, how does the Potency read?
Answer: inconclusive: 29.1 µM [inhibitor, single point]

Question: Which “activity change, negative = inhibition” value does the source give for `CCCCn1c(O)c(C=NCCCn2ccnc2)c(=O)[nH]c1=O` here?
Answer: inactive: -5.63%

Question: For `O=Cc1cn(CCCOc2ccccc2)c2ccccc12`, which Potency is on record?
Answer: inconclusive: 23.1 µM [inhibitor, single point]

Question: For `CCCCN1CCS(=O)(=O)N(Cc2ccccc2Br)CC(C(=O)OC)C1` (centres undefined), which Potency is on record?
Answer: inconclusive: 9.2 µM [inhibitor, partial curve, poor fit]

Question: Which “activity change, negative = inhibition” value does the source give for `Cc1ccc(-n2c(C)nc3ccccc3c2=O)cc1C` here?
Answer: inactive: 4.33%

Question: For `CCOc1ccccc1NC(=O)N1CCC2(CC1)OCCO2`, which Potency is on record?
Answer: inconclusive: 18.4 µM [activator, partial curve, poor fit]

Question: For `Cc1cccc(NP(=O)(Oc2ccccc2)Oc2ccccc2)c1C`, which Potency is on record?
Answer: inconclusive: 25.9 µM [inhibitor, single point]

Question: With `CN1C(=O)CN=C(c2ccccc2Cl)c2cc(Br)ccc21` as the molecule, how does the Potency read?
Answer: inconclusive: 10 µM [activator, partial curve, poor fit]

Question: For `CCOC(=O)C1=C(C)OC(N)=C(C#N)C12C(=O)N(C)c1ccccc12` (centres undefined), which “activity change, negative = inhibition” value is on record?
Answer: inactive: -7.85%

Question: Which Potency does the source give for `NS(=O)(=O)c1ccc(N=Cc2c(O)n(C3CCCCC3)c(=O)n(C3CCCCC3)c2=O)cc1` here?
Answer: inconclusive: 20.6 µM [inhibitor, single point]

Question: Which Potency does the source give for `c1ccc2sc(NC3=NCCN3)nc2c1` here?
Answer: inconclusive: 14.6 µM [activator, partial curve]

Question: For `NCCNc1ccc([N+](=O)[O-])c2cccnc12`, which “activity change, negative = inhibition” value is on record?
Answer: inactive: 24%

Question: Which “activity change, negative = inhibition” value does the source give for `COc1ccc(N2C(=O)NC(=O)/C(=C\c3ccccc3[N+](=O)[O-])C2=O)cc1` here?
Answer: inactive: 6.88%

Question: Which Potency does the source give for `CSc1ccc(CN2CCN(C(=O)COc3cccc(C)c3)CC2)cc1` here?
Answer: inconclusive: 18.3 µM [inhibitor, single point]

Question: Which “activity change, negative = inhibition” value does the source give for `Cc1cccc(N2C(=O)NC(=O)/C(=C/c3ccc([N+](=O)[O-])o3)C2=O)c1` here?
Answer: inactive: 1.49%

Question: With `CC(C)OC1CCCC(O)C1CC(=O)O` (centres undefined) as the molecule, how does the “activity change, negative = inhibition” value read?
Answer: inactive: 14.5%

Question: For `COc1ccccc1-n1c(/C=C/c2ccccn2)nc2ccccc2c1=O`, which Potency is on record?
Answer: inconclusive: 16.4 µM [inhibitor, single point]

Question: For `Cc1ccc(-n2c(O)c(C=NCc3ccco3)c(=O)[nH]c2=S)cc1C`, which “activity change, negative = inhibition” value is on record?
Answer: inactive: -2.81%

Question: Which Potency does the source give for `CCOC(=O)c1c(-n2c(C)cc(C=C3C(=O)NC(=S)NC3=O)c2C)sc2c1CCCC2` here?
Answer: inconclusive: 29.1 µM [inhibitor, single point]

Question: Which Potency does the source give for `Cc1cccc(-n2c(O)c(C=Nc3ccccc3N)c(=O)[nH]c2=O)c1` here?
Answer: inconclusive: 18.4 µM [activator, partial curve]

Question: With `Cc1ccc2c(c1)[C@H]1[C@H](CO2)[C@H](c2ccccc2)[C@]2(C)C(=O)N(CC3CCCO3)CC(=O)N12` (some centres undefined) as the molecule, how does the Potency read?
Answer: inconclusive: 9.2 µM [inhibitor, partial curve, poor fit]

Question: For `Cc1cc2c(cc(C(=O)N3CCC(C(=O)NC4CCCC4)CC3)n2Cc2c(F)cccc2Cl)o1`, which Potency is on record?
Answer: active: 23.1 µM

Question: With `CC(=NCc1cccnc1)c1c(O)n(Cc2ccccc2)c(=O)[nH]c1=O` as the molecule, how does the Potency read?
Answer: inconclusive: 16.4 µM [inhibitor, partial curve, poor fit]

Question: Which “activity change, negative = inhibition” value does the source give for `Cc1cc(=O)oc2c(C)c(OCC(=O)N3CCC(C(=O)O)(c4ccccc4)CC3)ccc12` here?
Answer: inactive: 12.2%

Question: Which “activity change, negative = inhibition” value does the source give for `COC(=O)OCC12CCC(O1)C1(C)C(=O)OCC21` (centres undefined) here?
Answer: inactive: 1.5%

Question: With `CCCCn1c(=O)c(C(=O)Nc2ccsc2C(=O)OC)c(O)c2ccccc21` as the molecule, how does the “activity change, negative = inhibition” value read?
Answer: inactive: 8.26%

Question: For `COc1ccccc1N1CCN(CCc2ccccc2)CC1`, which “activity change, negative = inhibition” value is on record?
Answer: inactive: -4.9%

Question: With `O=P1(Oc2ccccc2)OCCCS1` (centres undefined) as the molecule, how does the Potency read?
Answer: inconclusive: 0.517 µM [inhibitor, full curve]

Question: Which Potency does the source give for `COc1ccc(C(=O)/C=C/c2cccs2)c(OC(=O)N2CCOCC2)c1` here?
Answer: inconclusive: 16.4 µM [inhibitor, partial curve]

Question: For `CC[C@@]1(C(=O)OC)N[C@H](CN(C)C(=O)c2ccc(C(C)(C)C)cc2)[C@@H]2C(=O)N(Cc3ccccc3)C(=O)[C@@H]21`, which Potency is on record?
Answer: active: 11.6 µM

Question: Which Potency does the source give for `CCCCCNc1c(C(=O)OCC)c(=O)[nH]c2ccccc12` here?
Answer: inconclusive: 23.1 µM [inhibitor, partial curve]

Question: Which “activity change, negative = inhibition” value does the source give for `COc1ccc2c(c1)c(CCN)c(C)n2Cc1ccccc1` here?
Answer: inactive: 0%

Question: With `C=CC[n+]1c(-c2ccc(C)cc2)csc1Nc1c(C)n(C)n(-c2ccccc2)c1=O` as the molecule, how does the Potency read?
Answer: inconclusive: 20.6 µM [inhibitor, partial curve]

Question: Which “activity change, negative = inhibition” value does the source give for `Cc1ccc(C(O)P(=O)(Oc2ccccc2)Oc2ccccc2)cc1` (centres undefined) here?
Answer: inactive: 8.29%

Question: Which Potency does the source give for `CCN(CC)C(=O)Oc1cc2c(-c3cc4cccc(OC)c4o3)cc(=O)oc2cc1C` here?
Answer: inconclusive: 29.1 µM [inhibitor, single point]

Question: For `O=P(Nc1ccccc1)(Nc1ccccc1)Oc1ccc(Cl)cc1`, which Potency is on record?
Answer: inconclusive: 25.9 µM [inhibitor, single point]

Question: Which Potency does the source give for `CCOC(=O)C1=C(C)N(C)C2(C)CC1c1ccccc1O2` (centres undefined) here?
Answer: inconclusive: 0.146 µM [inhibitor, full curve]

Question: For `O=C(CCC(=O)N1C[C@H]2C[C@@H](C1)c1cccc(=O)n1C2)NCc1ccc(F)cc1`, which Potency is on record?
Answer: inconclusive: 7.3 µM [activator, partial curve]

Question: For `Cc1ncc(CC(=O)n2cc(C(=O)c3cc(Cl)ccc3O)cn2)s1`, which Potency is on record?
Answer: active: 20.6 µM

Question: Which “activity change, negative = inhibition” value does the source give for `COc1cccc(N2C(=O)/C(=C/c3ccc(C)o3)C(=O)NC2=S)c1` here?
Answer: inactive: 3.61%

Question: Which “activity change, negative = inhibition” value does the source give for `COc1ccc(CNC(=O)/C=C/c2ccc3[nH]cc(CCN(C)C)c3c2)cc1` here?
Answer: inactive: 10.2%

Question: For `CCCCn1c(O)c(C(CC)=Nc2ccc(OCC)cc2)c(=O)[nH]c1=O`, which Potency is on record?
Answer: inconclusive: 29.1 µM [inhibitor, partial curve, poor fit]

Question: For `C/C(=N\N1CCCCCC1)c1c(O)n(-c2ccc(C)cc2)c(=O)[nH]c1=O`, which “activity change, negative = inhibition” value is on record?
Answer: inactive: -1.99%

Question: For `C=CCNc1nnc(Sc2ncccc2[N+](=O)[O-])s1`, which Potency is on record?
Answer: inconclusive: 29.1 µM [activator, partial curve, poor fit]

Question: Which Potency does the source give for `CCOc1cccc(=NC2CCCCC2)c2c(C)[nH]c(C)c12` here?
Answer: active: 10.3 µM

Question: For `CCCCC(=O)N/N=C/c1c(O)n(CC)c(=S)n(CC)c1=O`, which Potency is on record?
Answer: inconclusive: 29.1 µM [activator, single point]

Question: With `CC1=C2[C@@H]3OC(=O)[C@H](C)C3CC[C@@]2(C)C=CC1=O` (some centres undefined) as the molecule, how does the “activity change, negative = inhibition” value read?
Answer: inactive: 0%

Question: For `CN1CCN(c2ccc(N)cc2Cl)CC1`, which “activity change, negative = inhibition” value is on record?
Answer: inactive: -4.45%

Question: Which Potency does the source give for `CC(C)n1cc(C(=O)N(CC(=O)NC(C)(C)C)Cc2ccccc2)cn1` here?
Answer: inconclusive: 20.6 µM [activator, partial curve, poor fit]

Question: For `CCCCCOc1ccc(C)cc1CN(CCCl)CCCl`, which Potency is on record?
Answer: inconclusive: 18.3 µM [inhibitor, single point]

Question: Which Potency does the source give for `CN1OCC2Cn3c(nc4ccccc43)C21` (centres undefined) here?
Answer: inconclusive: 0.92 µM [activator, partial curve, poor fit]

Question: With `CC(C)c1ccc(-n2c(O)c(C=NCCN3CCNCC3)c(=O)[nH]c2=S)cc1` as the molecule, how does the “activity change, negative = inhibition” value read?
Answer: inactive: 4.04%

Question: Which Potency does the source give for `CC1(C)C(=O)C=C[C@]2(C)[C@H]3CC[C@@]4(C)[C@H](c5ccoc5)OC(=O)[C@H]5O[C@]54[C@]3(C)[C@H](O)C[C@@H]12` here?
Answer: inconclusive: 25.9 µM [inhibitor, single point]

Question: For `COC(=O)C1=C(c2ccc(OC)c(OC)c2)C[C@@H]2CC[C@H]1N2C(=O)NC1CC1`, which “activity change, negative = inhibition” value is on record?
Answer: inactive: 18.9%

Question: Which “activity change, negative = inhibition” value does the source give for `COc1ccc(/C=C2/C(=O)NC(=O)N(Cc3ccco3)C2=O)cc1` here?
Answer: inactive: 9.7%

Question: Which Potency does the source give for `CCOc1cc2c(cc1OCC)-n1cccc1C(c1ccc(F)c(OC)c1)NC2` (centres undefined) here?
Answer: inconclusive: 20.6 µM [inhibitor, partial curve]

Question: With `Cc1ccc(C(=O)Nc2nc3ccccc3[nH]2)cc1` as the molecule, how does the Potency read?
Answer: inconclusive: 0.164 µM [activator, full curve]

Question: With `C=CCn1c(O)c(C(C)=NCCCO)c(=O)[nH]c1=O` as the molecule, how does the Potency read?
Answer: inconclusive: 20.6 µM [activator, single point]

Question: For `CCCCCn1c(=O)c(C(=O)Nc2cnccn2)c(O)c2ccccc21`, which Potency is on record?
Answer: inconclusive: 6.51 µM [inhibitor, single point]
